Data on ten compounds can be found in patent US4096112A, “2-Phenyl-indole derivative stabilizers for PVC resins” (Labaz, priority 1976, dated 1978).

Several values for one entry are separate records, joined by “and”; a condition that tells them apart may be missing. Equal entries are not always repeated. A value given as a limit tells only on which side of the number the result lay.

Data set [1] is described as follows: Static thermostability of the stabilized resin, simplified method (GARDNER sub-scale in polyvinyl chloride sheets). As to the method:
(§1) These studies were performed with five different formulae of vinyl resins (hereinafter referred to as Compounds).
(§2) The different Compounds were mixed and calendered in a mixer of which the cylinders were heated to 160° C. The rigid sheets so obtained were then heated in an oven to a temperature between 180° C and 215° C, until incipient carbonization.
(§3) A stove with rotating drums, ventilated and equipped with a thermostat was used for this operation. In the trials described hereunder, the behaviour of the sheets containing one of the stabilizers to be tested was compared to that of sheets of the same formulae but containing 2-phenylindole as stabilizer.
(2) It is also possible to use a simplified method which is more rapid and with which valid results are also obtained: A reference scale is drawn up with sheets of thermally treated polyvinyl chloride, of which the colorations have been definitely determined in GARDNER degrees as above.
A GARDNER sub-scale is thus obtained in polyvinyl chloride sheets which can be directly compared to the sheets to be tested without using the comparator.

Data set [2] is described as follows: Static thermostability of the stabilized resin, GARDNER Scale comparator. Particulars: Compound B, 210° C, 21 min. As to the method: as §1, §2, §3
(1) The coloration of the sheets, of which samples were removed from the stove at fixed intervals, was compared to a standard scale of coloration, known as the GARDNER Scale and expressed in terms of the reference figures of the GARDNER Scale.
Comparisons were made with a GARDNER Scale comparator which contains 18 filters of coloured glass and which offers the possibility of observing by transparency and in a limited field of view both the sheet and the reference filters.

As to `c1ccc(-c2cc3ccccc3[nH]2)cc1` [2-phenyl-indole], the Coloration of sheet in data set [1] (Compound A, 210° C, 0 min) was 1 GARDNER degrees; in data set [1] (Compound A, 210° C, 3 min), 2 GARDNER degrees and 1 GARDNER degrees; in data set [1] (Compound C, 210° C, 0 min), 1 GARDNER degrees; in data set [1] (Compound C, 210° C, 10 min), 1.5 GARDNER degrees; in data set [1] (Compound C, 210° C, 20 min), 2 GARDNER degrees; in data set [1] (Compound C, 210° C, 30 min), below 3 GARDNER degrees. Further, the Coloration of sheet is 3 GARDNER degrees in data set [1] (Compound C, 210° C, 40 min); above 3 GARDNER degrees in data set [1] (Compound C, 210° C, 50 min); 3.5 GARDNER degrees in data set [1] (Compound C, 210° C, 55 min); above 4 GARDNER degrees in data set [1] (Compound C, 210° C, 60 min); 1 GARDNER degrees in data set [1] (Compound D, 185° C, 0 min); 1 GARDNER degrees in data set [1] (Compound D, 185° C, 10 min). Besides, the Coloration of sheet in data set [1] (Compound D, 185° C, 20 min) is recorded as below 2 GARDNER degrees; in data set [1] (Compound D, 185° C, 30 min) it was 2 GARDNER degrees. Besides, in data set [1] (Compound A, 210° C, after 15 minutes), the “Burning of sheet along its edges” value is listed as “burnt along its edges after 15 minutes”. In data set [2], the Condition of sheet entry is reported as “completely burnt”.

Consider `CCOc1ccc(-c2cc3ccccc3[nH]2)cc1OCC` [Stabilizer 28, 2-(3'4'-diethoxy-phenyl)-indole], for which the Coloration of sheet in data set [1] (Compound A, 210° C, 0 min) is recorded as 1 GARDNER degrees; in data set [1] (Compound A, 210° C, 3 min) it was 1 GARDNER degrees; in data set [1] (Compound A, 210° C, 6 min), 2 GARDNER degrees; in data set [1] (Compound A, 210° C, 9 min), 2 GARDNER degrees; in data set [1] (Compound A, 210° C, 12 min), 10 GARDNER degrees; in data set [1] (Compound A, 210° C, 15 min), 13 GARDNER degrees. In addition, in data set [1] (Compound A, 210° C, 18 min), the Coloration of sheet result is recorded as “Burnt”.

`COc1ccc(-c2cc3ccccc3[nH]2)cc1OCc1ccccc1` [Stabilizer 29, 2-(3'-benzyloxy-4'-methoxy-phenyl)indole]: the Coloration of sheet in data set [1] (Compound A, 210° C, 0 min) was 1 GARDNER degrees; in data set [1] (Compound A, 210° C, 3 min) it was 1 GARDNER degrees; in data set [1] (Compound A, 210° C, 6 min) it was 1 GARDNER degrees; in data set [1] (Compound A, 210° C, 9 min), 4 GARDNER degrees; in data set [1] (Compound A, 210° C, 12 min), 10 GARDNER degrees; in data set [1] (Compound A, 210° C, 15 min), 13 GARDNER degrees. Also, the Coloration of sheet result in data set [1] (Compound A, 210° C, 18 min) is given as “Burnt”.

`CCCCCCCCCCCCOc1ccc(-c2cc3ccccc3[nH]2)cc1C` [Stabilizer 30, 2-(3'-methyl-4'-dodecyloxy-phenyl)-indole]: the Coloration of sheet in data set [1] (Compound A, 210° C, 0 min) came out at 1 GARDNER degrees; in data set [1] (Compound A, 210° C, 3 min), 1 GARDNER degrees; in data set [1] (Compound A, 210° C, 6 min), 3 GARDNER degrees; in data set [1] (Compound A, 210° C, 9 min), 5 GARDNER degrees; in data set [1] (Compound A, 210° C, 12 min) it was 6 GARDNER degrees; in data set [1] (Compound A, 210° C, 15 min) it was 13 GARDNER degrees. The Coloration of sheet result in data set [1] (Compound A, 210° C, 18 min) is “Burnt”.

`Cc1cc(-c2cc3ccccc3[nH]2)ccc1OCc1ccccc1` [Stabilizer 32, 2-(3'-methyl-4'-benzyloxy-phenyl)-indole]: the Coloration of sheet in data set [1] (Compound A, 210° C, 0 min) came out at 1 GARDNER degrees; in data set [1] (Compound A, 210° C, 3 min), 1 GARDNER degrees; in data set [1] (Compound A, 210° C, 6 min) it was 4 GARDNER degrees; in data set [1] (Compound A, 210° C, 9 min) it was 4 GARDNER degrees; in data set [1] (Compound A, 210° C, 12 min) it was 11 GARDNER degrees; in data set [1] (Compound A, 210° C, 15 min), 13 GARDNER degrees. Moreover, the Coloration of sheet result in data set [1] (Compound A, 210° C, 18 min) is reported as “Burnt”.

Turning to `c1ccc2[nH]c(-c3ccc4c(c3)OCO4)cc2c1` [Stabilizer 33, 2-(3',4'-methylenedioxy-phenyl)-indole], the Coloration of sheet in data set [1] (Compound A, 210° C, 0 min) was 1 GARDNER degrees; in data set [1] (Compound A, 210° C, 3 min) it was 1 GARDNER degrees; in data set [1] (Compound A, 210° C, 6 min), 2 GARDNER degrees; in data set [1] (Compound A, 210° C, 9 min), 5 GARDNER degrees; in data set [1] (Compound A, 210° C, 12 min) it was 11 GARDNER degrees; in data set [1] (Compound A, 210° C, 15 min) it was 13 GARDNER degrees. Besides, the Coloration of sheet result in data set [1] (Compound A, 210° C, 18 min) is on record as “Burnt”.

Consider `c1ccc2[nH]c(-c3ccc4c(c3)OCCO4)cc2c1` [Stabilizer 34, 2-(3',4'-ethylenedioxy-phenyl)-indole], for which the Coloration of sheet in data set [1] (Compound A, 210° C, 0 min) is on record as 1 GARDNER degrees; in data set [1] (Compound A, 210° C, 3 min), 1 GARDNER degrees; in data set [1] (Compound A, 210° C, 6 min) it was 2 GARDNER degrees; in data set [1] (Compound A, 210° C, 9 min), 5 GARDNER degrees; in data set [1] (Compound A, 210° C, 12 min) it was 10 GARDNER degrees; in data set [1] (Compound A, 210° C, 15 min) it was 13 GARDNER degrees. Moreover, the Coloration of sheet result in data set [1] (Compound A, 210° C, 18 min) was “Burnt”.

Regarding `CCOc1ccc(-c2cc3ccccc3[nH]2)cc1C` [Stabilizer 35, 2-(3'-methyl-4'-ethoxy-phenyl)-indole], the Coloration of sheet in data set [1] (Compound A, 210° C, 0 min) was found to be 1 GARDNER degrees; in data set [1] (Compound A, 210° C, 3 min), 1 GARDNER degrees; in data set [1] (Compound A, 210° C, 6 min) it was 2 GARDNER degrees; in data set [1] (Compound A, 210° C, 9 min), 5 GARDNER degrees; in data set [1] (Compound A, 210° C, 12 min) it was 5 GARDNER degrees; in data set [1] (Compound A, 210° C, 15 min), 11 GARDNER degrees. Besides, the Coloration of sheet in data set [1] (Compound A, 210° C, 18 min) turned out to be 12 GARDNER degrees.

As for `COc1ccc(-c2cc3ccccc3[nH]2)cc1OC` [Stabilizer 36, 2-(3',4'-dimethoxy-phenyl)-indole], the Coloration of sheet in data set [1] (Compound A, 210° C, 0 min) is given as 1 GARDNER degrees; in data set [1] (Compound A, 210° C, 3 min) it was 1 GARDNER degrees; in data set [1] (Compound A, 210° C, 6 min), 2 GARDNER degrees; in data set [1] (Compound A, 210° C, 9 min), 3 GARDNER degrees; in data set [1] (Compound A, 210° C, 12 min), 7 GARDNER degrees; in data set [1] (Compound A, 210° C, 15 min), 8 GARDNER degrees.

For the compound `COc1cc(-c2cc3ccccc3[nH]2)cc(OC)c1OC` [Stabilizer 37, 2-(3',4',5'-trimethoxy-phenyl)-indole], the Coloration of sheet came to 1 GARDNER degrees in data set [1] (Compound A, 210° C, 0 min); 1 GARDNER degrees in data set [1] (Compound A, 210° C, 3 min); 2 GARDNER degrees in data set [1] (Compound A, 210° C, 6 min); 2 GARDNER degrees in data set [1] (Compound A, 210° C, 9 min); 8 GARDNER degrees in data set [1] (Compound A, 210° C, 12 min); 10 GARDNER degrees in data set [1] (Compound A, 210° C, 15 min). Further, in data set [1] (Compound A, 210° C, 18 min), the Coloration of sheet stood at 12 GARDNER degrees.
